Reference: PubChem BioAssay AID743454 (Peter MacCallum Cancer Centre, 2014)
Screen: 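Search for knock-downs that restore vorinostat killing in resistant colon cancer cells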 (primary screen). System: human HCT116-VR colon cancer cells, selected for vorinostat resistance. Reagents: siRNA pool against human genes, 40 nM siRNA pool. Timing: vorinostat for 24 h, read-out about 72 h after transfection. Treatment: vorinostat at 2.5 µM final. Measurement: 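Cell viability by CellTiter-Fluor and caspase 3/7 activity by luminescence, each scaled to mock wells per plate, duplicates averaged, then robust z-scored over all plates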. Scale: viability robust z-score: higher = more viable cells than screen typical; caspase robust z-score: higher = more caspase 3/7 activity than screen typical. Hit rule: 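a knock-down is a hit when classed RV1 or RV2 for lowered viability, or CA1 or CA2 for caspase activation; those lethal without drug were dropped; hits were retested singly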.
Here is a random part of about 18,000 deposited reagents. Over the whole deposit, 450 (2.5%) got an active call. 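Single biological run; no consistent viability z cut-off exists, so the class columns, not z-scores, define the calls.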 Entries without a mark were called inactive.

After knock-down of SLC19A4P (GeneID 56918) the results were viability hit class no change; caspase hit class no change; viability robust z-score -0.22; caspase robust z-score -1.12.
Depletion of MYCL (GeneID 4610) gave: viability hit class no change; caspase hit class no change; viability robust z-score 0.02; caspase robust z-score -0.42.
LYZL2 (GeneID 119180) scored viability hit class no change; caspase hit class no change; viability robust z-score 0.38; caspase robust z-score -0.5.
SFXN5 (GeneID 94097) gave viability hit class no change; caspase hit class no change; viability robust z-score -0.46; caspase robust z-score 0.4.
Silencing of HAND2 (GeneID 9464) resulted in: viability hit class no change; caspase hit class no change; viability robust z-score -1.31; caspase robust z-score -0.4.
Against ZNF502 (GeneID 91392), the values are viability hit class no change; caspase hit class no change; viability robust z-score -0.14; caspase robust z-score -0.64.
SLC25A41 (GeneID 284427) scored viability hit class no change; caspase hit class no change; viability robust z-score -0.18; caspase robust z-score -0.7.
Knock-down of TMEM161A (GeneID 54929) gave: viability hit class no change; caspase hit class no change; viability robust z-score -0.32; caspase robust z-score 2.06.
For EGLN2 (GeneID 112398), the values are viability hit class no change; caspase hit class no change; viability robust z-score 0.64; caspase robust z-score -0.23.
OR13C9 (GeneID 286362) showed viability hit class no change; caspase hit class no change; viability robust z-score -1.5; caspase robust z-score 1.56.
CACUL1 (GeneID 143384) showed viability hit class no change; caspase hit class no change; viability robust z-score -0.09; caspase robust z-score -0.3.
KIF23 (GeneID 9493) gave viability hit class no change; caspase hit class no change; viability robust z-score -2.21; caspase robust z-score 3.08.
ATF7 (GeneID 11016) showed viability hit class no change; caspase hit class no change; viability robust z-score 0; caspase robust z-score 0.77.
Silencing of NARS1 (GeneID 4677) came out at: viability hit class no change; caspase hit class no change; viability robust z-score -1.36; caspase robust z-score -0.26.
With knock-down of XIAP (GeneID 331), the screen gave viability hit class no change; caspase hit class no change; viability robust z-score 0.53; caspase robust z-score -0.18.
NUBP1 (GeneID 4682) scored viability hit class no change; caspase hit class no change; viability robust z-score 0.44; caspase robust z-score -0.06.
With knock-down of PAQR3 (GeneID 152559) the results were viability hit class no change; caspase hit class no change; viability robust z-score 1.62; caspase robust z-score -0.38.
AGRP (GeneID 181) showed viability hit class no change; caspase hit class no change; viability robust z-score -0.87; caspase robust z-score -0.97.
GARIN3 (GeneID 153745) scored viability hit class no change; caspase hit class no change; viability robust z-score -1.3; caspase robust z-score 1.34.
For SH2D2A (GeneID 9047) the deposit lists viability hit class no change; caspase hit class no change; viability robust z-score 1.23; caspase robust z-score -0.36.
Knock-down of PRY (GeneID 9081) resulted in: viability hit class no change; caspase hit class no change; viability robust z-score -0.02; caspase robust z-score 0.85.

Part of the list above, showing only “caspase robust z-score”:
NARS1 (GeneID 4677) = -0.26
XIAP (GeneID 331) = -0.18
NUBP1 (GeneID 4682) = -0.06
